Reference: patent US5981488A, “Glucagon-like peptide-1 analogs” (Eli Lillly and Company, priority 1998, dated 1999)
At least one peptide structure holds a part that was inferred or is arguable (an end, a ring closure or a residue).

Target: T1, rat GLP-1 receptor (Rattus norvegicus, UniProt P32301)
T1 construct: expressed in transfected cells; membrane preparation
T1 sequence (P32301 22-463): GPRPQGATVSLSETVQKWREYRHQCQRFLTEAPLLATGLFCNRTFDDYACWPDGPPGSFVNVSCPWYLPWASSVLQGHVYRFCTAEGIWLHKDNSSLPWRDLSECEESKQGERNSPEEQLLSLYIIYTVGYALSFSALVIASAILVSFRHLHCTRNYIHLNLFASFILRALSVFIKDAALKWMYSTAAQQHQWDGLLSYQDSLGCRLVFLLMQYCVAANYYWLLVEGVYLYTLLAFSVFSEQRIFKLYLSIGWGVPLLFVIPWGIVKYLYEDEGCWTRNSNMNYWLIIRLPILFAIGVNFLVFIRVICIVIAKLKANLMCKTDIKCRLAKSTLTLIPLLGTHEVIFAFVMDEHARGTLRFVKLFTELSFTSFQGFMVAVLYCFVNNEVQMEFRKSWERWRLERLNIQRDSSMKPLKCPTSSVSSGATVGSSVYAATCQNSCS
Experiment: In vitro receptor binding assay: cAMP production in membranes of CHO cells expressing the rat GLP-1 receptor
Type: biochemical
Details: relative to GLP-1(7-37)OH = 100%; rat GLP-1 receptor CHO membrane preparation, cAMP fluorescent tracer-immunoassay

Structure (SMILES) | Percent receptor affinities
CC[C@H](C)[C@H](NC(=O)[C@H](Cc1ccccc1)NC(=O)[C@H](CCC(=O)O)NC(=O)[C@H](CCCCN)NC(=O)[C@H](C)NC(=O)[C@H](C)NC(=O)[C@H](CCC(N)=O)NC(=O)CNC(=O)[C@H](CCC(=O)O)NC(=O)[C@H](CC(C)C)NC(=O)[C@H](Cc1ccc(O)cc1)NC(=O)[C@H](CO)NC(=O)[C@H](CO)NC(=O)[C@@H](NC(=O)[C@H](CC(=O)O)NC(=O)[C@H](CO)NC(=O)[C@@H](NC(=O)[C@H](Cc1ccccc1)NC(=O)[C@@H](NC(=O)CNC(=O)[C@H](CCC(=O)O)NC(=O)[C@@H](NC(=O)[C@@H](N)Cc1c[nH]cn1)[C@@H](C)O)[C@@H](C)O)[C@@H](C)O)C(C)C)C(=O)N[C@@H](C)C(=O)N[C@@H](Cc1c[nH]c2ccccc12)C(=O)N[C@@H](CC(C)C)C(=O)N[C@H](C(=O)N[C@@H](CCCCN)C(=O)NCC(=O)N[C@@H](CCCNC(=N)N)C(=O)NCC(=O)O)C(C)C [Thr-8 GLP-1(7-37)OH] | 2.8% ± 0.7%
CC[C@H](C)[C@H](NC(=O)[C@H](Cc1ccccc1)NC(=O)[C@H](CCC(=O)O)NC(=O)[C@H](CCCCN)NC(=O)[C@H](C)NC(=O)[C@H](C)NC(=O)[C@H](CCC(N)=O)NC(=O)CNC(=O)[C@H](CCC(=O)O)NC(=O)[C@H](CC(C)C)NC(=O)[C@H](Cc1ccc(O)cc1)NC(=O)[C@H](CO)NC(=O)[C@H](CO)NC(=O)[C@@H](NC(=O)[C@H](CC(=O)O)NC(=O)[C@H](CO)NC(=O)[C@@H](NC(=O)[C@H](Cc1ccccc1)NC(=O)[C@@H](NC(=O)CNC(=O)[C@H](CCC(=O)O)NC(=O)[C@H](CCSC)NC(=O)[C@@H](N)Cc1c[nH]cn1)[C@@H](C)O)[C@@H](C)O)C(C)C)C(=O)N[C@@H](C)C(=O)N[C@@H](Cc1c[nH]c2ccccc12)C(=O)N[C@@H](CC(C)C)C(=O)N[C@H](C(=O)N[C@@H](CCCCN)C(=O)NCC(=O)N[C@@H](CCCNC(=N)N)C(N)=O)C(C)C [Met-8 GLP-1(7-36)NH2] | 16.6% ± 5.8%
